In the supplement of paper PMC10849652:
This is one part of the list.

The chains behind the UniProt entries cited, without tags or fusion partners. Where a name states a change or a piece, a line headed by the entry shows the natural chain unless it says otherwise.
UniProt Q5VWJ9: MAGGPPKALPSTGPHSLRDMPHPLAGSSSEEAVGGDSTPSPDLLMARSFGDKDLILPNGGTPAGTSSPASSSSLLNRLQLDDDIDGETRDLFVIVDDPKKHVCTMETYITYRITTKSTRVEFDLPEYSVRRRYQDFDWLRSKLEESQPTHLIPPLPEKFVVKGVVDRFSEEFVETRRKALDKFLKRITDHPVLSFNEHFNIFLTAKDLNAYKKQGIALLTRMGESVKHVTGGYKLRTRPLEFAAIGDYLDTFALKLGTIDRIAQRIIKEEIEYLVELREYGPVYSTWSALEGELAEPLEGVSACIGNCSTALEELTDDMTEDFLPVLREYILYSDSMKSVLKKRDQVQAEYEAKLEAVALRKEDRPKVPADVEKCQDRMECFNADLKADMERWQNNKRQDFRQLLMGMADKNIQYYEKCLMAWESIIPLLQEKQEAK
UniProt Q8TAD8: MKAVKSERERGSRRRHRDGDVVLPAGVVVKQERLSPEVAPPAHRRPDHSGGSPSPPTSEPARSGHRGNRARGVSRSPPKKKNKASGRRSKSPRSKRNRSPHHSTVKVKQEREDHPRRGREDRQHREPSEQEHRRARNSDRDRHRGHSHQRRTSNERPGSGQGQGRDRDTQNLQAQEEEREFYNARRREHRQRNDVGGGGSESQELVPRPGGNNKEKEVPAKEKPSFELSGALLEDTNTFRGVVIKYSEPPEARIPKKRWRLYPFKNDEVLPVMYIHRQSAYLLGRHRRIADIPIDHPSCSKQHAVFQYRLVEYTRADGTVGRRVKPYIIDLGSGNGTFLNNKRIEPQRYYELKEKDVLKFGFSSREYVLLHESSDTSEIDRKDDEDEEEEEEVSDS
UniProt O75971: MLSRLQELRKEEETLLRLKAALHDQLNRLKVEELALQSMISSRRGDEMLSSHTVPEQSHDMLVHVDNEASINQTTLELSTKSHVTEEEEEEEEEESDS
UniProt Q9BT81: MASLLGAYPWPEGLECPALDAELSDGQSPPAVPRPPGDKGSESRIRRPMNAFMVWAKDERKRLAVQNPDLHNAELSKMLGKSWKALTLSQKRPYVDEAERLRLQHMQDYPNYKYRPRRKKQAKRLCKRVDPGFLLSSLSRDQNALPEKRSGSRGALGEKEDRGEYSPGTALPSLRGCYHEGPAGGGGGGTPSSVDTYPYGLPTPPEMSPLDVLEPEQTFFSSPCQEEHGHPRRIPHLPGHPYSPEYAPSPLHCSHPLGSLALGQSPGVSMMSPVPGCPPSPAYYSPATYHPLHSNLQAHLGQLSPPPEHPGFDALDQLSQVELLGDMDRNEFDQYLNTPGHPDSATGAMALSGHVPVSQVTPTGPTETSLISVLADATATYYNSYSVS
UniProt Q96E16: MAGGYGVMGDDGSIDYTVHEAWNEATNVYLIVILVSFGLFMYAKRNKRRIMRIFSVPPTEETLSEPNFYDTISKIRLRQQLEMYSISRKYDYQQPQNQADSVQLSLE
UniProt O60749: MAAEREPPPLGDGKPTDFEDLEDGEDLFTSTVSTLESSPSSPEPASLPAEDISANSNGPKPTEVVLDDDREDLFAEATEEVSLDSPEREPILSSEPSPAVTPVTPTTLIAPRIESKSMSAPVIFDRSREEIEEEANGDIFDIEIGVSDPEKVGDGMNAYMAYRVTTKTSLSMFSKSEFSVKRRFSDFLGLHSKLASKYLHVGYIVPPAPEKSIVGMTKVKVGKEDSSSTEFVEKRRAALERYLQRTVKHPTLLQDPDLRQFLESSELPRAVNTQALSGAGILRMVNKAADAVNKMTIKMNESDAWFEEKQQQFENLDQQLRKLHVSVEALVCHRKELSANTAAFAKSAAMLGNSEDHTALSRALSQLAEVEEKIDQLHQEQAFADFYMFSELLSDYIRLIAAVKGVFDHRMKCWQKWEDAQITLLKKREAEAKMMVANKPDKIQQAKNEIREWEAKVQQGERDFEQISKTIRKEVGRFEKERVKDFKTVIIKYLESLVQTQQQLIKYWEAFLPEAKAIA
UniProt P0DJ93: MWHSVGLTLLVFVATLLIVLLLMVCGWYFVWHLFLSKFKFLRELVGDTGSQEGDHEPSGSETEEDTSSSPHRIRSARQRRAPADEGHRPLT
UniProt Q8WVI0: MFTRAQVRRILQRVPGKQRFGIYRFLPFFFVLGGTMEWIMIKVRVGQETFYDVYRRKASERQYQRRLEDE
UniProt Q86T20: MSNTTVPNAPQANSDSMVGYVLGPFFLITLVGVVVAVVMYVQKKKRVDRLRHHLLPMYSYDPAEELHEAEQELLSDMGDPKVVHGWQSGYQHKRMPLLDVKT
UniProt Q12824, whole entry, looked up: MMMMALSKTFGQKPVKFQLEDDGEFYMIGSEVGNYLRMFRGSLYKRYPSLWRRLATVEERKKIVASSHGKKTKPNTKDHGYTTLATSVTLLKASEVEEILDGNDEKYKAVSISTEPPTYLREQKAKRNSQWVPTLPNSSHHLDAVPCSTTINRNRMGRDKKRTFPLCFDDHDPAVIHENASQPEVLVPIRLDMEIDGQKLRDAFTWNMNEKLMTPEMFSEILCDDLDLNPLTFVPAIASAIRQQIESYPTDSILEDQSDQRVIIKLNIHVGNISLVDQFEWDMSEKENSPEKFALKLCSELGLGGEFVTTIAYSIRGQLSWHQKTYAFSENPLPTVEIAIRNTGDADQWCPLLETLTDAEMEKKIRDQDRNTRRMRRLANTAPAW
UniProt Q92484: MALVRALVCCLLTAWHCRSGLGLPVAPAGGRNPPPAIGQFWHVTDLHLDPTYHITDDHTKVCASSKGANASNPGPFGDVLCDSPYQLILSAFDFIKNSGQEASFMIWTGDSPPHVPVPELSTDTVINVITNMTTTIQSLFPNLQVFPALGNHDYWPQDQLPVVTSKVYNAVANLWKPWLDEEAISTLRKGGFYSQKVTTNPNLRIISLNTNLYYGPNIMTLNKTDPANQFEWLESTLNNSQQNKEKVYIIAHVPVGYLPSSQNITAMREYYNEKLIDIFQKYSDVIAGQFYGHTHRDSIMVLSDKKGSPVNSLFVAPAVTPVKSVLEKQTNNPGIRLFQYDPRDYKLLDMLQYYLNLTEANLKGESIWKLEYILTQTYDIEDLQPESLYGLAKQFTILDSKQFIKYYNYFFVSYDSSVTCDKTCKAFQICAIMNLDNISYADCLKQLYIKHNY
UniProt P53814: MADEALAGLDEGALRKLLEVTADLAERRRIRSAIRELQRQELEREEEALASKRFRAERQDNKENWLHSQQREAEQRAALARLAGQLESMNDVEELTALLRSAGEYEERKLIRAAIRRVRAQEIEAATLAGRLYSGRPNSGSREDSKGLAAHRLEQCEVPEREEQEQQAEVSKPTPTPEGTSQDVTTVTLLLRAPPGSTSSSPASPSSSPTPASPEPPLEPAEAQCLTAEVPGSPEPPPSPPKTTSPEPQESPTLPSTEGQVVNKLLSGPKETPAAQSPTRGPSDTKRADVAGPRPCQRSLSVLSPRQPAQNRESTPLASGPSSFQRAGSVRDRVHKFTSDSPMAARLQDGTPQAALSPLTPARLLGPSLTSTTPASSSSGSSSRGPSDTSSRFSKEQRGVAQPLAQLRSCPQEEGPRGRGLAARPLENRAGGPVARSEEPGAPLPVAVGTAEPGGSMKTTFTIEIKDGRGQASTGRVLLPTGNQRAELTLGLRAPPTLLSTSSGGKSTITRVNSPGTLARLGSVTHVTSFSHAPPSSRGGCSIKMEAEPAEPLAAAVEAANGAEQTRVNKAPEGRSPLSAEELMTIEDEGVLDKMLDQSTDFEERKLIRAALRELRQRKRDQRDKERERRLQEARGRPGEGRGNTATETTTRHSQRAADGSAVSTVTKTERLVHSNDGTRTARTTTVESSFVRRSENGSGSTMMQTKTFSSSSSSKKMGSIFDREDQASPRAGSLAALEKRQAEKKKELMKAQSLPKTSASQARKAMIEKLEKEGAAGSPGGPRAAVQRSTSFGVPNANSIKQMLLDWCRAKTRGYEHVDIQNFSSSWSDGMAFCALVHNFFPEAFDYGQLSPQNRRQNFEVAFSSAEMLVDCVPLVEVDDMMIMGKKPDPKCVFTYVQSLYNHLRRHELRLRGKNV
UniProt Q92543: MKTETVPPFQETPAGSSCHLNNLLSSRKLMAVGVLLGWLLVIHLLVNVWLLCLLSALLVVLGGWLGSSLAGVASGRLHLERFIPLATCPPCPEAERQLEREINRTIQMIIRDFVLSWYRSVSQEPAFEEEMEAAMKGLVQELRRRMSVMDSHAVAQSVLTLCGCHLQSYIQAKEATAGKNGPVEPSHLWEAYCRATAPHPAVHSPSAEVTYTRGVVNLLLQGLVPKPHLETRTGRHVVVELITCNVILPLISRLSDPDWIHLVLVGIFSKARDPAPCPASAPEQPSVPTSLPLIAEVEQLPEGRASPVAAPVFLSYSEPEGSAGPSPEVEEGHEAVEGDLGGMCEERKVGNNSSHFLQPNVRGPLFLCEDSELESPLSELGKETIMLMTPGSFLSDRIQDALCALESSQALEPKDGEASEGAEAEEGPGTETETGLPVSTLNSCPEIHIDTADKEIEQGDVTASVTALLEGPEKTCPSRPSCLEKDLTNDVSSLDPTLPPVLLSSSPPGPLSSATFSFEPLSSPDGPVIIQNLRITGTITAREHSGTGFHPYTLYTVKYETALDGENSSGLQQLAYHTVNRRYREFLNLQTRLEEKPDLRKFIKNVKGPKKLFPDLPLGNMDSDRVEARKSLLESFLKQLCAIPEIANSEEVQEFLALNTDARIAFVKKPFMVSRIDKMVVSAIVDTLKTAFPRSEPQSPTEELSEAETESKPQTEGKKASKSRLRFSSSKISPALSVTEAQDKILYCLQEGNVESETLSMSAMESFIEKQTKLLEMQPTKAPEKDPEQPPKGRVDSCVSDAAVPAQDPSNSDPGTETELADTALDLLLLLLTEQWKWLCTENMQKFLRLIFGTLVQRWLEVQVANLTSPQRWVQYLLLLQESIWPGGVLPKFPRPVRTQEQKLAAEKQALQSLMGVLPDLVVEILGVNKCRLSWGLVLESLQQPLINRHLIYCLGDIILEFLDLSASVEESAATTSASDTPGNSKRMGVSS
UniProt P35712: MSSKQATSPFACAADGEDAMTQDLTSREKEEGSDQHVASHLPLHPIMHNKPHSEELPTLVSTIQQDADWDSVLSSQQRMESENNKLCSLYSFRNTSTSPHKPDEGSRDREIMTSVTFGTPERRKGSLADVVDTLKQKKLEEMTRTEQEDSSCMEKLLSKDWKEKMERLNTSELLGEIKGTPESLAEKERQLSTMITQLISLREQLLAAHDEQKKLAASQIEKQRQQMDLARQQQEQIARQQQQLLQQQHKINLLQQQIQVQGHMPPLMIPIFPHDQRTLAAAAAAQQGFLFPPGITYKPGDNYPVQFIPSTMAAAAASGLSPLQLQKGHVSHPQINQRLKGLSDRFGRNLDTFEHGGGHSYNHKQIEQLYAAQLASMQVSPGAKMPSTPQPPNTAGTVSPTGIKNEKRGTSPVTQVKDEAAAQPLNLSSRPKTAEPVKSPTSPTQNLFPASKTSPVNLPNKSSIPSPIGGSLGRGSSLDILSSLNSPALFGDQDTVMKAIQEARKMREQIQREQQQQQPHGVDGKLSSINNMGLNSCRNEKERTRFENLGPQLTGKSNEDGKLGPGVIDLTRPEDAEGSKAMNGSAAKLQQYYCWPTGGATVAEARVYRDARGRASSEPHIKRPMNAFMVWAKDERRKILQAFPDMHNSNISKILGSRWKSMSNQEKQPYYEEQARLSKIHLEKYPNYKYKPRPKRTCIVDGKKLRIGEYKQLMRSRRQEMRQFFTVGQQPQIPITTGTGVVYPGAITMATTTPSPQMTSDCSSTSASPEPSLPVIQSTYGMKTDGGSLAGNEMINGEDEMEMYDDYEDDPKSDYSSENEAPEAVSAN
UniProt O00161: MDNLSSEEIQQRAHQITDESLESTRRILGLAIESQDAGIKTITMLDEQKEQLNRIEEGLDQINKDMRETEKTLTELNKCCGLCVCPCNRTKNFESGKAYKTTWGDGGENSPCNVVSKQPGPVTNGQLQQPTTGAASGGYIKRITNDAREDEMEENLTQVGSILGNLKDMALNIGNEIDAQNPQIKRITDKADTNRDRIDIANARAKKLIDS
UniProt O95219: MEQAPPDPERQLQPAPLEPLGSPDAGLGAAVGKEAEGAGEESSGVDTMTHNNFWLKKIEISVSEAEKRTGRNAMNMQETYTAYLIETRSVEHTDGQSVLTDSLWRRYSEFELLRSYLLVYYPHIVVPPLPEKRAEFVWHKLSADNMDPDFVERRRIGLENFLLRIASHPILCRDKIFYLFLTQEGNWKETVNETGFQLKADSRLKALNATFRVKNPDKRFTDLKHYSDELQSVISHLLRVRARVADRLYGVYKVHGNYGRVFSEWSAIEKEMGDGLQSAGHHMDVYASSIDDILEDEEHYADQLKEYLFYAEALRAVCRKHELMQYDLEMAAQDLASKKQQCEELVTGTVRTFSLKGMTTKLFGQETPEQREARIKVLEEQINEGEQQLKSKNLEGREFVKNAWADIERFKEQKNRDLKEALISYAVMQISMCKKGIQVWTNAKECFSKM

Key:
Assay in all cases: log2 fold change, soluble protein after heating vs DMSO (PISA); higher = thermal stabilisation; K562 cells, 10 uM, 30 min; active = over 0.2 and 3.5 SD of the protein, either way, in both replicates (recomputed)
vorinostat = compound: O=C(CCCCCCC(=O)Nc1ccccc1)NO [vorinostat]
Outline: (§1)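 Soluble protein was quantified by TMTpro 16plex LC-MS/MS after channel sums were equalised. It was obtained as the supernatant after 21,000xg for 90 min from pooled aliquots of K562 cells (2×10^6 cells/mL, 10 μM compound, 30 min) heated for 3 min across 48°C-58°C and extracted in PBS with 0.5% NP-40 at 4°C. Thermal stability values are relative to control samples and come from duplicates. They are given as log2 fold changes.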

citarinostat = compound: O=C(CCCCCCNC(=O)c1cnc(N(c2ccccc2)c2ccccc2Cl)nc1)NO [citarinostat]
Outline: as §1

[1] = compound: c1cc(OCCN2CCCCC2)cc(-c2n[nH]c3ccc(-c4nnc[nH]4)cc23)c1
Outline: as §1

entospletinib = compound: c1cn2cc(-c3ccc4cn[nH]c4c3)nc(Nc3ccc(N4CCOCC4)cc3)c2n1 [entospletinib]
Outline: as §1

[2] = compound: NC(=O)Nc1cc(-c2cccc(F)c2)sc1C(=O)N[C@H]1CCCNC1
Outline: as §1

entinostat = compound: Nc1ccccc1NC(=O)c1ccc(CNC(=O)OCc2cccnc2)cc1 [entinostat]
Outline: as §1

[3] = compound: O=C1NC(=O)C(c2cnc3ccccn23)=C1c1cn2c3c(cc(F)cc13)CN(C(=O)N1CCCCC1)CC2
Outline: as §1

[4] = compound: NC(=O)c1cnc(N[C@@H]2CCCC[C@@H]2N)nc1Nc1cccc(-n2nccn2)c1
Outline: as §1

[5] = compound: NCC(=O)Nc1ccc(-n2nc(C(F)(F)F)cc2-c2ccc3c(ccc4ccccc43)c2)cc1
Outline: as §1

[6] = compound: NC1(c2ccc(-c3nc4ccn5c(=O)[nH]nc5c4cc3-c3ccccc3)cc2)CCC1
Outline: as §1

silmitasertib = compound: O=C(O)c1ccc2c(c1)nc(Nc1cccc(Cl)c1)c1ccncc12 [silmitasertib]
Outline: as §1

Measured: log2 fold change

SP4 (UniProt Q02446)
inactive: vorinostat 0.118 | citarinostat -0.052 | [1] -0.005 | entospletinib 0.09

SNX30 (UniProt Q5VWJ9)
inactive: [2] -0.055 | entinostat -0.041 | [3] 0.24

SLC8B1 (UniProt Q6J4K2)
inactive: [4] -0.078 | [5] 0.034 | vorinostat -0.031

SMG6 (UniProt Q86US8)
inactive: [2] -0.054 | entinostat 0.057 | [3] 0.196

SNIP1 (UniProt Q8TAD8)
inactive: vorinostat -0.013

SNX27 (UniProt Q96L92)
inactive: [4] -0.036 | [5] -0.088 | vorinostat 0.14 | citarinostat -0.006 | [3] 0.161 | [1] -0.037 | entospletinib 0.281

SP2 (UniProt Q02086)
inactive: [2] 0.164 | [4] -0.144 | entinostat -0.018 | citarinostat -0.063 | [1] -0.293

Two records drawn at random from those above:
SP2 (UniProt Q02086)
inactive: [2] 0.164 | [4] -0.144 | entinostat -0.018 | citarinostat -0.063 | [1] -0.293

SMG6 (UniProt Q86US8)
inactive: [2] -0.054 | entinostat 0.057 | [3] 0.196

The list goes on:

SNAPC5 (UniProt O75971)
inactive: [4] 0.052 | [5] 0.019 | vorinostat -0.154 | [3] -0.03

SOX7 isoform 2 (UniProt Q9BT81)
inactive: [4] -0.001 | [6] 0.297 | [5] 0.087 | vorinostat -0.02 | silmitasertib 0.289 | [3] 0.243

SMIM19 (UniProt Q96E16)
inactive: [4] 0.052 | [5] -0.114 | citarinostat -0.026 | [1] 0.182 | entospletinib -0.01

SNX2 isoform 2 (UniProt O60749)
inactive: [2] 0.043 | [4] -0.004 | [5] -0.264 | entinostat 0.088 | citarinostat 0.065 | [3] -0.183 | [1] -0.1

SMIM13 (UniProt P0DJ93)
inactive: [2] -0.164 | [6] 0.08 | entinostat -0.179 | citarinostat -0.038 | silmitasertib 0.029 | [1] 0.039 | entospletinib 0.01

SLC9A6 isoform 3 (UniProt Q92581)
inactive: [4] 0.009 | citarinostat -0.066 | [1] 0.172

SMARCAL1 (UniProt Q9NZC9)
inactive: [6] -0.099 | [5] -0.039 | silmitasertib 0.02

SMIM4 (UniProt Q8WVI0)
inactive: [4] -0.27 | [6] 0.05 | [5] -0.148 | citarinostat -0.006 | silmitasertib 0.106 | [3] 0.296 | [1] -0.17 | entospletinib 0.082

SNRPD2 (UniProt K7EJB5)
inactive: [4] -0.172 | [6] -0.008 | [5] -0.292 | vorinostat -0.101 | citarinostat -0.003 | silmitasertib 0.073 | [1] 0.026 | entospletinib -0.068

SMARCD2 (UniProt Q92925)
inactive: [4] -0.065 | [6] -0.046 | vorinostat 0.127 | citarinostat 0.05 | silmitasertib -0.298 | [1] -0.145 | entospletinib 0.165

SNRPN isoform 2 (UniProt P63162)
inactive: [4] 0.187 | vorinostat -0.056 | citarinostat 0.152 | [1] 0.103 | entospletinib -0.086

SNX16 (UniProt P57768)
inactive: [2] 0.019 | [6] -0.054 | [5] 0.073 | entinostat -0.045 | vorinostat 0.068 | citarinostat 0 | silmitasertib 0.029 | [3] -0.123 | [1] -0.086 | entospletinib -0.073

SMPD4 isoform 2 (UniProt Q9NXE4)
inactive: [4] -0.1 | [6] 0.014 | [5] -0.03 | vorinostat 0.216 | silmitasertib -0.058

SMAD3 (UniProt P84022)
inactive: [4] 0.019 | [5] 0.007 | vorinostat -0.015

SNX13 (UniProt Q9Y5W8)
inactive: [2] 0.04 | [6] -0.506 | entinostat -0.109 | silmitasertib 0.257 | [3] -0.006

SNRK (UniProt Q9NRH2)
inactive: [2] -0.19 | entinostat -0.046 | citarinostat 0.26 | [1] 0.325

SORBS3 (UniProt O60504)
inactive: vorinostat -0.089 | [3] -0.313

SMIM29 (UniProt Q86T20)
inactive: [2] 0 | entinostat -0.056

SMG7 isoform 4 (UniProt Q92540)
inactive: [2] 0.022 | [5] -0.088 | entinostat 0.04 | vorinostat 0.014 | citarinostat 0.034 | [3] -0.037 | [1] -0.058 | entospletinib 0.024

SMARCB1 (UniProt Q12824)
inactive: [2] -0.023 | [5] -0.261 | entinostat -0.005 | vorinostat -0.158 | citarinostat -0.171 | [1] -0.103
active: entospletinib 0.887

SMPDL3A (UniProt Q92484)
inactive: [3] 0.029

SMTN isoform 6 (UniProt P53814)
inactive: [2] 0.142 | [5] 0.047 | entinostat -0.135 | [3] 0.098

SLC9B2 (UniProt Q86UD5)
inactive: [5] -0.092 | [3] 0.028

SNX19 (UniProt Q92543)
inactive: [2] 0.03 | entinostat -0.038 | citarinostat 0.072 | [3] -0.011 | [1] -0.073 | entospletinib 0.091

SOX6 (UniProt P35712)
inactive: [6] -0.059 | [5] -0.045 | silmitasertib 0.027

SMUG1 (UniProt Q53HV7)
inactive: [2] -0.117 | [6] -0.112 | entinostat 0.049 | citarinostat 0.035 | silmitasertib 0.03 | [1] -0.143 | entospletinib -0.166

SMARCD1 (UniProt Q96GM5)
inactive: [6] -0.076 | silmitasertib 0.023

SMARCA2 (UniProt P51531)
inactive: [4] 0.071 | [6] -0.099 | vorinostat 0.163 | citarinostat 0.161 | silmitasertib -0.033 | [1] 0.008 | entospletinib 0.015

SNAP23 isoform 2 (UniProt O00161)
inactive: [2] -0.054 | [6] -0.092 | [5] 0.267 | entinostat -0.346 | citarinostat 0.063 | silmitasertib 0.151 | [3] 0.114 | [1] -0.097 | entospletinib -0.152

SNAP47 (UniProt Q5SQN1)
inactive: [5] -0.157 | [3] 0.103

SNX18 (UniProt Q96RF0)
inactive: [2] -0.341 | entinostat -0.164 | [3] -0.073

SNX4 (UniProt O95219)
inactive: vorinostat 0

SMU1 isoform 2 (UniProt Q2TAY7)
inactive: citarinostat 0.087 | [1] 0.205 | entospletinib -0.342
